Earlier results in patent US6384081B2, “Treatment of diseases of the eye characterized by the formation of metalloproteinase” (priority 1998, dated 2002).
For at least one compound, name, drawing or mass did not settle the structure.

Assays:
[1] = test system: collagenase; settings: oral administration; preliminary data
[2] = test system: toxoplasma; settings: rabbit eyes infected with toxoplasma

SMILES: C[C@H]1c2cccc(O)c2C(=O)C2=C(O)[C@]3(O)C(=O)C(C(N)=O)=C(O)[C@@H](N(C)C)[C@@H]3[C@@H](O)[C@@H]21 [doxycycline]
- collagenase activity in corneas [1]: decreased the collagenase activity
- therapeutic efficiency on infected rabbit eyes [2]: positive elect
